Measurements reported in PubChem BioAssay AID686938 (Drosophila RNAi Screening Center, 2013)
Purpose: 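Fly genes required for calcium entry once internal stores are emptied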 (primary screen). System: Drosophila S2R+ cells. Reagent: long dsRNA against Drosophila genes, about 0.25 µg dsRNA per well, roughly 10,000 cells. Time to read-out: 5 days of knock-down before the calcium assay. Challenge: thapsigargin (SERCA pump blocker) to empty calcium stores; entry signal taken 4 min after adding it. Read-out: 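Duplicate raw fluo-4 intensities per well from a plate reader, at rest and four minutes after thapsigargin emptied calcium stores; entry-to-rest ratio filled for only some wells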. Scale: calcium entry signal: higher = stronger calcium signal after store depletion; resting calcium signal: higher = higher resting calcium signal. Active means: 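Hit if the duplicate-averaged plate z-score for entry over resting signal is under −3; wells with weak total dye signal (Fmax z < −2) or more than 5 off-targets removed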. Meaning of the calls: active = strongly reduced calcium entry; inactive = no strong reduction.
In all, the deposit lists about 23,000 reagents; below is a random part of those that have a named target and a result. Of all reagents, 75 (0.33%) got an active call. 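Raw plate signals without normalisation; calls rest on plate z-scores that were not deposited; ratio present for only 364 wells.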 A number with no mark means an inactive call. A plus sign joins genes that one reagent is predicted to hit. Not given: the dose of the treatment.

target gene | amplicon | calcium entry signal, replicate 1 (fluorescence units) | calcium entry signal, replicate 2 (fluorescence units) | resting calcium signal, replicate 1 (fluorescence units) | resting calcium signal, replicate 2 (fluorescence units)
CG17141 | DRSC15178 | 5.02e7 | 5.31e7 | 2.27e7 | 2.09e7
CG42586 + CG31775 | DRSC01413 | 3.39e7 | 3.91e7 | 2.03e7 | 1.98e7
CG13654 | DRSC14654 | 3.40e7 | 6.25e7 | 1.81e7 | 2.71e7
klg | DRSC13591 | 5.48e7 | 3.21e7 | 2.49e7 | 1.65e7
klg | DRSC16978 | 5.42e7 | 5.69e7 | 2.65e7 | 2.45e7
CG13077 | DRSC02181 | 4.16e7 | 4.99e7 | 2.09e7 | 2.24e7
CG34427 | DRSC09978 | 3.67e7 | 5.40e7 | 1.72e7 | 2.34e7
CR11023 | DRSC00302 | 3.32e7 | 3.29e7 | 1.64e7 | 1.52e7
CG31404 | DRSC15497 | 3.72e7 | 3.81e7 | 4.88e7 | 1.68e7
CG31886 | DRSC03248 | 5.84e7 | – | 2.65e7 | –
Lcp3 | DRSC07457 | 5.06e7 | 4.08e7 | 2.29e7 | 1.91e7
Sirt1 | DRSC03435 | 4.25e7 | – | 2.36e7 | –
CG2129 | DRSC18209 | 2.63e7 | 2.42e7 | 1.14e7 | 1.08e7
l(2)k09913 | DRSC04699 | 3.87e7 | – | 1.98e7 | –
Gbeta76C | DRSC11174 | 2.67e7 | 3.76e7 | 1.25e7 | 2.12e7
CG17780 | DRSC15265 | 3.35e7 | 5.42e7 | 1.77e7 | 2.18e7
Mkrn1 | DRSC11870 | 2.68e7 | 1.54e7 | 1.31e7 | 8.42e6
CG4404 | DRSC19897 | 3.78e7 | 5.04e7 | 2.12e7 | 2.41e7
CG7914 | DRSC20068 | 5.50e7 | 4.32e7 | 2.55e7 | 1.86e7
Df31 | DRSC03738 | 3.93e7 | 3.62e7 | 1.95e7 | 1.66e7
Df31 | DRSC22163 | 2.96e7 | 3.84e7 | 1.53e7 | 1.86e7
CG9813 | DRSC16569 | 3.13e7 | 3.85e7 | 1.43e7 | 1.73e7
Elp4 | DRSC02999 | 1.95e7 | 2.23e7 | 1.09e7 | 1.12e7
Ranbp16 + Lcch3 | DRSC20257 | 3.44e7 | 3.91e7 | 1.67e7 | 1.81e7
drm | DRSC00277 | 2.98e7 | 3.55e7 | 1.50e7 | 1.72e7
s-cup | DRSC06277 | 3.47e7 | 4.46e7 | 1.75e7 | 1.98e7
s-cup | DRSC06278 | 3.21e7 | 3.28e7 | 1.66e7 | 1.62e7
alpha-Est8 | DRSC12620 | 4.31e7 | 2.89e7 | 2.05e7 | 1.56e7
CCT5 | DRSC07357 | 1.94e7 | 2.30e7 | 1.24e7 | 1.37e7
Dysb | DRSC10730 | 2.49e7 | 4.73e7 | 1.44e7 | 2.05e7
CG13482 | DRSC10024 | 2.46e7 | 3.39e7 | 1.17e7 | 2.47e7
Slu7 | DRSC14729 | 1.82e7 | 2.42e7 | 1.32e7 | 1.48e7
CG14826 | DRSC10197 | 1.79e7 | 3.46e7 | 9.05e6 | 1.42e7
Ns2 | DRSC06993 | 2.86e7 | 2.28e7 | 1.28e7 | 1.17e7
Acox57D-p | DRSC04560 | 4.08e7 | – | 2.03e7 | –
Hrb27C | DRSC03347 | 4.30e7 | – | 2.02e7 | –
Femcoat | DRSC18061 | 3.04e7 | 4.63e7 | 1.50e7 | 2.15e7
PRL-1 | DRSC03393 | 4.46e7 | 3.70e7 | 2.12e7 | 1.80e7
CG15252 | DRSC17981 | 2.80e7 | 4.12e7 | 1.40e7 | 1.99e7
CG12477 | DRSC09886 | 3.28e7 | 5.06e7 | 1.78e7 | 2.01e7
Tep1 | DRSC03450 | 5.27e7 | 4.28e7 | 2.27e7 | 1.69e7
RpL11 | DRSC07537 | 1.39e7 | 9.85e6 | 9.15e6 | 7.80e6
Osi18 | DRSC12181 | 5.12e7 | 4.81e7 | 2.35e7 | 2.08e7
CG42748 | DRSC03712 | 3.71e7 | 5.59e7 | 2.01e7 | 2.36e7
CG42748 | DRSC03713 | 4.18e7 | – | 2.11e7 | –
CG42748 | DRSC03734 | 4.44e7 | 5.99e7 | 2.36e7 | 2.31e7
CG17118 | DRSC02579 | 2.58e7 | 3.52e7 | 1.18e7 | 1.62e7
CG32032 | DRSC08961 | 5.21e7 | 6.80e7 | 2.36e7 | 3.00e7
lncRNA:roX2 | DRSC22237 | 3.16e7 | 4.30e7 | 1.63e7 | 2.24e7
NiPp1 | DRSC07307 | 4.28e7 | 4.38e7 | 2.00e7 | 2.03e7
cmpy | DRSC11701 | 2.82e7 | 5.12e7 | 1.30e7 | 2.17e7
cag | DRSC07587 | 4.20e7 | 3.93e7 | 2.04e7 | 1.79e7
CG32428 | DRSC11697 | 4.75e7 | 6.03e7 | 2.33e7 | 3.76e7
CG32428 | DRSC11768 | 2.91e7 | 5.76e7 | 1.39e7 | 2.25e7
CG12343 | DRSC06135 | 3.23e7 | 3.45e7 | 1.49e7 | 1.64e7
Mdr50 | DRSC07467 | 3.89e7 | 3.62e7 | 2.14e7 | 1.68e7
CG15390 | DRSC00404 | 3.55e7 | 3.02e7 | 1.58e7 | 1.32e7
Cpr78Cb | DRSC11847 | 2.24e7 | 3.28e7 | 1.15e7 | 1.55e7

No new results follow: an excerpt of the list.
target gene | amplicon | calcium entry signal, replicate 1 (fluorescence units) | calcium entry signal, replicate 2 (fluorescence units) | resting calcium signal, replicate 1 (fluorescence units) | resting calcium signal, replicate 2 (fluorescence units)
Acox57D-p | DRSC04560 | 4.08e7 | – | 2.03e7 | –
Hrb27C | DRSC03347 | 4.30e7 | – | 2.02e7 | –
Femcoat | DRSC18061 | 3.04e7 | 4.63e7 | 1.50e7 | 2.15e7
PRL-1 | DRSC03393 | 4.46e7 | 3.70e7 | 2.12e7 | 1.80e7
CG15252 | DRSC17981 | 2.80e7 | 4.12e7 | 1.40e7 | 1.99e7
